Measured values taken from the supplement of paper PMC7238544.
Counter-ions that a name gives are not always drawn. ± gives the standard deviation of the averaged measurements. Some of the results follow. The data scatter; read single values as rough.

Tests used:
[1] = system: hAMSC donor 1; assay: Hoechst total cell count ratio vs vehicle control; higher = more cells (less toxicity)
[2] = system: hAMSC donor 2; assay: as above
[3] = system: hAMSC donor 1; assay: transgenic luciferase activity (RLU/mg protein) fold change vs vehicle control (ratio); higher = more transgene expression
[4] = system: hAMSC donor 2; assay: as above
[5] = system: hAMSC donor 1; assay: transfection efficiency (EGFP+ cells / Hoechst count) fold change vs vehicle control (ratio); hAMSC are human adipose-derived mesenchymal stem cells given an EGFP-luciferase plasmid by lipofection; higher = enhanced transfection
[6] = system: hAMSC donor 2; assay: as above
[7] = priming compound concentration 0.2 µM
[8] = priming compound concentration 1.7 µM
[9] = priming compound concentration 13 µM

Structure (SMILES)	Hoechst total cell count ratio [1, 7]	Hoechst total cell count ratio [1, 8]	Hoechst total cell count ratio [1, 9]	Hoechst total cell count ratio [2, 7]	Hoechst total cell count ratio [2, 8]	Hoechst total cell count ratio [2, 9]	transgenic luciferase activity [3, 8]	transgenic luciferase activity [3, 9]	transgenic luciferase activity [4, 8]	transgenic luciferase activity [4, 9]	transfection efficiency [5, 7]	transfection efficiency [5, 8]	transfection efficiency [5, 9]	transfection efficiency [6, 7]	transfection efficiency [6, 8]	transfection efficiency [6, 9]	transgenic luciferase activity [3, 7]	transgenic luciferase activity [4, 7]
CCc1cc(C(N)=S)ccn1 [Ethionamide]	1.18 ± 0.1	0.587 ± 0.038	0.878 ± 0.12	0.839 ± 0.23	1.37 ± 0.11	1.54 ± 0.23	0.774 ± 0.25	1.25 ± 0.045	0.667 ± 0.075	0.333 ± 0.071	1.5 ± 0.53	1.4 ± 0.14	1.76 ± 0.4	0.972 ± 0.24	1.16 ± 0.063	0.85 ± 0.059	–	–
CCCCC(=O)O[C@]1(C(=O)CO)CC[C@H]2[C@@H]3CCC4=CC(=O)CC[C@]4(C)[C@H]3[C@@H](O)C[C@@]21C [Hydrocortisone 17-valerate]	1.25 ± 0.091	1.44 ± 0.12	1.26 ± 0.23	1.14 ± 0.044	1.02 ± 0.12	1.01 ± 0.077	3.89 ± 0.72	–	1.96 ± 0.14	1.45 ± 0.26	1.54 ± 0.41	1.49 ± 0.24	1.22 ± 0.18	1.19 ± 0.074	2.38 ± 0.19	1.66 ± 0.24	1.62 ± 0.53	–
CN(C)CCCN1c2ccccc2CCc2ccccc21 [Imipramine hydrochloride]	1.22 ± 0.075	1.31 ± 0.21	1.47 ± 0.25	0.838 ± 0.039	0.881 ± 0.063	1.2 ± 0.18	–	0.675 ± 0.18	0.463 ± 0.31	–	1.31 ± 0.3	1.06 ± 0.13	1 ± 0.17	1.04 ± 0.11	1.35 ± 0.44	1.01 ± 0.25	0.796 ± 0.067	1.04 ± 0.2
CN1CCN(C2=Nc3cc(Cl)ccc3Nc3ccccc32)CC1 [Clozapine]	–	–	–	–	–	–	–	1.02 ± 0.75	0.335 ± 0.14	–	1.39 ± 0.081	1.05 ± 0.15	0.966 ± 0.15	0.889 ± 0.17	0.983 ± 0.014	0.724 ± 0.15	1.72 ± 1.3	0.65 ± 0.092
C[C@]12CCC(=O)C=C1CC[C@@H]1[C@@H]2[C@@H](O)C[C@@]2(C)[C@H]1CC[C@]2(O)C(=O)COC(=O)CCC(=O)O [Hydrocortisone hemisuccinate]	1.12 ± 0.072	1.34 ± 0.26	1.34 ± 0.14	1.14 ± 0.074	0.776 ± 0.06	0.965 ± 0.22	1.73 ± 0.56	–	0.677 ± 0.068	0.946 ± 0.21	1.35 ± 0.34	1.78 ± 0.27	1.15 ± 0.26	0.849 ± 0.22	1.46 ± 0.14	1.37 ± 0.084	0.723 ± 0.3	–
CO[C@H]1/C=C/O[C@@]2(C)Oc3c(C)c(O)c4c(O)c(c(/C=N/N5CCN(C)CC5)c(O)c4c3C2=O)NC(=O)/C(C)=C\C=C\[C@H](C)[C@H](O)[C@@H](C)[C@@H](O)[C@@H](C)[C@H](OC(C)=O)[C@@H]1C [Rifampicin]	1.16 ± 0.16	1.25 ± 0.16	1.6 ± 0.061	1.16 ± 0.058	0.776 ± 0.036	1.21 ± 0.15	–	5.46 ± 0.39	0.459 ± 0.081	–	1.2 ± 0.42	1.04 ± 0.18	0.822 ± 0.11	1.02 ± 0.13	1.55 ± 0.13	0.978 ± 0.064	0.256 ± 0.17	0.775 ± 0.12
CC(C)OC(=O)C(C)(C)Oc1ccc(C(=O)c2ccc(Cl)cc2)cc1 [Fenofibrate]	1.18 ± 0.11	1.24 ± 0.077	1.36 ± 0.051	1.18 ± 0.19	0.73 ± 0.14	1.3 ± 0.26	–	5.23 ± 1.9	0.565 ± 0.15	–	1.52 ± 0.33	1.01 ± 0.095	1.17 ± 0.22	0.603 ± 0.024	1.37 ± 0.14	0.974 ± 0.35	0.529 ± 0.16	0.797 ± 0.21
CC1(C)S[C@@H]2[C@H](NC(=O)COc3ccccc3)C(=O)N2[C@H]1C(=O)O [Penicillin V]	1.04 ± 0.1	1.27 ± 0.27	1.14 ± 0.095	1.05 ± 0.085	1.06 ± 0.019	1.03 ± 0.088	–	0.518 ± 0.11	1.01 ± 0.12	1 ± 0.052	0.883 ± 0.17	1.32 ± 0.75	1.02 ± 0.26	1.37 ± 0.13	1.24 ± 0.11	1.27 ± 0.16	–	1.16 ± 0.54
